Reference: paper doi:10.1101/2025.01.13.632769
Results are given in words; binding and its absence hold for the method and conditions named. Binding can be weak; no strength is given.

Protein sequences, listed by entry. Tags and fused reporters are not part of them. Lines headed by an entry give the natural chain unless they say otherwise; changes in a name come on top.
UniProt Q9VWE4: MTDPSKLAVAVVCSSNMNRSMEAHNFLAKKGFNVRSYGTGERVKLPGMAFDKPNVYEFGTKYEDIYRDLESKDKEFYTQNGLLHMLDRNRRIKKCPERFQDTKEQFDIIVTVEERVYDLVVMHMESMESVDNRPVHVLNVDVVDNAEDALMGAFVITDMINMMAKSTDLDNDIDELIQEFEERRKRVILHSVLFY

Biological target: T1, Symplekin (residues 19-351) (Drosophila) (UniProt Q8MSU4)
T1 sequence: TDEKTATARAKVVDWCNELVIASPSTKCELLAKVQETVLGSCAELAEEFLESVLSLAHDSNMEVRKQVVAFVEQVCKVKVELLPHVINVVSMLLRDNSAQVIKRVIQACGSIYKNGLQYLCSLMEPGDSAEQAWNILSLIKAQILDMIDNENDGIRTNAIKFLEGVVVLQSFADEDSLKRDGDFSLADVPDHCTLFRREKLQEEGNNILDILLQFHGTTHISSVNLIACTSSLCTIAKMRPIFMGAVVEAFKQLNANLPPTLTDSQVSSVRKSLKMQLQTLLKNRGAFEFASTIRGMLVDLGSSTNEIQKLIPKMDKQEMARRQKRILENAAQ
Assay: SEC

Row | binding | Substance
1 | binds | Drosophila Ssu72 (1-195) (from UniProt Q9VWE4) (enzyme)
2 | binds | mutant Drosophila Ssu72 (C13D/D144N) (from UniProt Q9VWE4) (enzyme)
